Measurements published in PubChem BioAssay AID758 (NMMLSC, 2007).
In all, about 190,000 compounds went through this assay and about 110 (0.058%) were called active. Inconclusive means that the source gave no clear call. Such entries were picked first, then a sample of the others.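 The calls were made as follows: active = fluorescent GTP binding to Rab7 beads changed by at least 20 points from the 100% baseline, either direction, mostly lower; inconclusive = compound itself probably fluorescent, or too few beads counted; inactive = the rest.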

System: Rab7 GTPase wild type (dog), Bodipy-FL-GTP binding
Test: modulators of GTP binding to Rab7, primary screen, biochemical, wildtype, multiplex bead flow cytometry (AID 758);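 also: median green fluorescence of bound Bodipy-FL-GTP per Rab7 bead population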
Details: GST-Rab7 beads, fluorescent GTP binding, at 10 µM, actives lie on both sides, untreated = 100%, excess cold GTP = 0%

SMILES	GTP binding activity (percent of control)
O=C(OCC1OC(n2cnc3c(N(C(=O)c4ccccc4)C(=O)c4ccccc4)ncnc32)C(O)C1F)c1ccccc1 (stereo unspecified)	inconclusive: 104%
CC(C)c1nc2n[nH]c(N)c2c2c1CCC2	inconclusive: 96%
COCCCNC(=O)CCCCCNS(=O)(=O)c1ccc(Br)cc1	inactive: 102%
CCOC(=O)n1n[n+]([O-])c2ccccc21	inconclusive: 100%
NC(=O)C1CCN(CC(=O)NCc2ccccc2)CC1	inconclusive: 102%
O=C(CNS(=O)(=O)c1ccc(Br)cc1)OCc1cc(=O)n2cc(Br)ccc2n1	inconclusive: 97%
N=C1C(=O)OCC1c1ccccc1NC(=O)CN1CCOCC1 (stereo unspecified)	inactive: 93%
CCN(CC(=O)Nc1ccccc1OC)C(=O)C1CC2C=CC1C2 (stereo unspecified)	inconclusive: 91%
Nc1nnc(SCC(=O)OCC(=O)c2ccccc2Br)s1	inconclusive: 92%
COCC(C)n1c(SCc2cc(=O)n3cc(C)ccc3n2)nc2ccccc2c1=O (stereo unspecified)	inconclusive: 92%
CCn1cc(C=C2C(=O)c3ccccc3C2=O)c2ccccc21	inactive: 83%
C=CCc1ccccc1OCC(O)CN1CCN(c2ccc(C)cc2)CC1 (stereo unspecified)	inconclusive: 96%
O=C(Nc1cccc(O)c1)c1ccc(Br)c(S(=O)(=O)N2CCCCC2)c1	inconclusive: 91%
CC(C)CNC(=O)C(=O)NNC(=O)C1CCCCC1	inconclusive: 106%
CC1(C)C2CCC1(C)C(OC(=O)c1ccc(O)cc1)C2 (stereo unspecified)	inactive: 97%
CCn1c(=O)cc(SCC(=O)N2CCC(C)CC2)c2ccccc21	inconclusive: 96%
c1ccc(SCCOCCN2CCc3ccccc3C2)cc1	inactive: 94%
Cc1nc(NCc2ccccn2)c2ccccc2n1	inactive: 93%
O=[N+]([O-])c1ccc(Cl)cc1N1CCCCC1	inactive: 96%
CCc1ccccc1NC(=O)C1CCN(C(=O)c2ccc([N+](=O)[O-])cc2)CC1	inactive: 103%
COc1cccc(CNC(=O)CCS(=O)(=O)c2cccc3nonc23)c1	inconclusive: 98%
CCc1nnc(NS(=O)(=O)c2ccc(N/C=C\C(=O)c3ccc(F)cc3)cc2)s1	inconclusive: 89%
Cc1c(NC(=O)c2ccc(-c3ccc([N+](=O)[O-])cc3Cl)o2)c(=O)n(-c2ccccc2)n1C	inconclusive: 93%
O=C1Nc2cc(Cl)c(Cl)cc2N(O)N1c1ccc(Cl)c(Cl)c1	inactive: 93%

3 entries picked at random from the list so far, as already listed:
SMILES	GTP binding activity (percent of control)
N=C1C(=O)OCC1c1ccccc1NC(=O)CN1CCOCC1 (stereo unspecified)	inactive: 93%
CCc1nnc(NS(=O)(=O)c2ccc(N/C=C\C(=O)c3ccc(F)cc3)cc2)s1	inconclusive: 89%
CCn1cc(C=C2C(=O)c3ccccc3C2=O)c2ccccc21	inactive: 83%

Further structures follow.

SMILES	GTP binding activity (percent of control)
CCOc1cc(C2c3c(-c4ccccc4)n[nH]c3C(=O)N2c2ccc(C(=O)O)cc2)ccc1O (stereo unspecified)	inactive: 94%
CN1C=CC=C/C1=C1\SC(=S)N(c2ccccc2)C1=O	inconclusive: 108%
CC(=O)N1Cc2cc([N+](=O)[O-])ccc2Oc2ccccc21	inactive: 96%
CC(C)CN=Cc1c(O)c([N+](=O)[O-])cc2oc3c(c12)CCCC3	inactive: 95%
COc1ccc(N=C2NC(=O)/C(=C/c3ccc(O)c(OC)c3)S2)cc1	inactive: 100%
COCCCNC(=O)C1CCN(c2nc(C)cc(C)n2)CC1	inconclusive: 107%
CCCn1c(C)cc(C(=O)CSc2nc3nc(C)cc(C)n3n2)c1C	inactive: 96%
COc1ccccc1-c1nc(C#N)c(N2CCN(C(c3ccccc3)c3ccccc3)CC2)o1	inconclusive: 91%
Cc1ccc(NC(=O)CSc2ncn[nH]2)cc1S(=O)(=O)N1CCOCC1	inconclusive: 94%
O=C(CCl)Nc1ccccc1C(=O)c1ccccc1	inactive: 97%
c1ccc(COc2ccc(OCCCCN3CCCCC3)cc2)cc1	inconclusive: 103%
CC(C)NC(=O)Cn1nnc(-c2ccc(Cl)cc2)n1	inconclusive: 101%
Fc1ccccc1N1CCN(c2ncnc3[nH]ncc23)CC1	inconclusive: 95%
N#Cc1ccc(-c2ccc(Cl)cc2)nc1Oc1ccc(F)cc1	inconclusive: 105%
Cc1cccc(/N=C2/NC(=O)C(Cc3ccccc3)S2)n1 (stereo unspecified)	inconclusive: 98%
C=CCNC(=O)c1c(Cl)cnn1-c1ccc(C)cc1	inactive: 99%
C#CCSc1nsc(SCC#C)c1C#N	inconclusive: 98%
CCC(OC(=O)c1cc2sccc2n1C)C(=O)NCc1ccco1 (stereo unspecified)	active: 22%
COc1ccc(CNC(=O)c2cc3c(C)nc4ccccc4c3o2)c(OC)c1	inconclusive: 97%
O=C(/C(=C/c1ccccc1)c1ccccc1)N1CCCCC1	inconclusive: 115%
O=C(CSc1cccc(C(F)(F)F)c1)NC(=O)c1ccccc1	inconclusive: 104%
O=[N+]([O-])c1ccccc1CN1CCN(Cc2ccccn2)CC1	inconclusive: 99%
CC(C)c1ccc(/C=C/C(=O)n2nnc3ccccc32)cc1	inconclusive: 94%
CCOC(=O)c1cc(C(=O)OCC)c(=O)[nH]c1C	inactive: 97%

Of the compounds above, these have a cyano group:
SMILES	GTP binding activity (percent of control)
COc1ccccc1-c1nc(C#N)c(N2CCN(C(c3ccccc3)c3ccccc3)CC2)o1	inconclusive: 91%
N#Cc1ccc(-c2ccc(Cl)cc2)nc1Oc1ccc(F)cc1	inconclusive: 105%
C#CCSc1nsc(SCC#C)c1C#N	inconclusive: 98%

Carrying on.

SMILES	GTP binding activity (percent of control)
C=CCNC(=S)N/N=C/c1ccc(-c2ccc(OC)cc2)o1	inconclusive: 88%
CCN(CC)S(=O)(=O)c1ccc(NC(=O)c2cccnc2Cl)c(NC(=O)c2cccnc2Cl)c1	inactive: 91%
O=c1c(/C=N/Nc2ccccc2)c(Sc2nnnn2-c2ccccc2)nc2ccccn12	inconclusive: 128%
COc1cccc(/C=C2\SC(=S)N(c3cccnc3)C2=O)c1OC	inconclusive: 91%
O=C(/C=C/c1ccc(-c2ccccc2)o1)c1ccccc1	inconclusive: 93%
O=C(c1ccc([N+](=O)[O-])cc1[N+](=O)[O-])N1CCCC1	inconclusive: 93%
Cc1c(Cl)c([N+](=O)[O-])nn1Cc1ccc(C(=O)N/N=C\c2cc(Cl)ccc2O)o1	inconclusive: 95%
O=C(Nc1cc(C(F)(F)F)ccc1N1CCCCC1)c1cccc([N+](=O)[O-])c1	inconclusive: 92%
Cc1cc(Cl)ccc1OCC(=O)N1CCN(c2ncccn2)CC1	inconclusive: 93%
O=S(=O)(Nc1ccc(O)c(Sc2nc3ccccc3s2)c1)c1ccc(Cl)cc1	inconclusive: 92%
CCCc1nn(C)c(C(=O)Nc2cccc(C)c2)c1Cl	inconclusive: 101%
NNC(=O)CNS(=O)(=O)c1ccc([N+](=O)[O-])cc1	inactive: 102%
COC(=O)N/N=C/c1cc(Br)ccc1O	inconclusive: 99%
COc1ccc(CN2CCNC(=O)C2CC(=O)N2CCc3ccccc3C2)c(OC)c1 (stereo unspecified)	inconclusive: 95%
CN1CCN(C(=S)c2cn(CCOc3ccccc3F)c3ccccc23)CC1	inactive: 107%
O=C(OCc1ccc2c(c1)OCO2)c1ccc(S(=O)(=O)N2CCCCC2)cc1	inconclusive: 102%
CC(C)(C)SCCNC(=O)c1cccc([N+](=O)[O-])c1	inconclusive: 99%
Cc1cc2nccc(-c3ccc(Cl)c([N+](=O)[O-])c3)n2n1	inactive: 96%
Nc1c(C(=O)NCC2CCCO2)sc2nc3c(c(-c4ccco4)c12)CC/C3=C\c1ccco1 (stereo unspecified)	inconclusive: 86%
O=C(COc1ccc(Cl)cc1)NNC(=O)CSc1nncs1	inactive: 101%
Nc1ccc2c(c1)C(=O)C(=O)c1ccccc1-2	inactive: 92%
COc1ccccc1-c1nnc(SCC(=O)c2ccc(C3CCCCC3)cc2)n1Cc1ccco1	inconclusive: 90%
O=S(=O)(c1ccc(Cl)cc1)N1CCN=C1SCc1ccc(Cl)c(Cl)c1	inactive: 98%
O=C(O)C(CC1CCCCC1)N1CCS(=O)(=O)CC1 (stereo unspecified)	inactive: 93%

SMILES	GTP binding activity (percent of control)
COC(=O)c1cc(Br)c(N)cc1OC	inactive: 94%
CCn1cc(C(=O)OCC(=O)c2cc(C)n(-c3cccc(C(F)(F)F)c3)c2C)c(=O)c2ccc(C)nc21	inactive: 83%
Cc1csc(Sc2ccc(S(=O)(=O)N3CCCC3)cn2)n1	inactive: 95%
Nc1nn2c(-c3ccccc3)cc(=O)[nH]c2c1N=Nc1ccc(O)cc1	inconclusive: 80%
O=C1C(=O)N(Cc2ccccc2)C(=O)N1CCN1C(=O)c2ccccc2C1=O	inconclusive: 91%
COCCn1c(SCC(=O)Nc2cc(C)cc(C)c2)nnc1C(C)C	inconclusive: 100%
COC(=O)C1=C(C)N(c2cccc(Cl)c2)C(=O)C1	inconclusive: 101%
O=C(Nc1ccccc1)N1CCOCC1	inconclusive: 103%
CCOC(=O)c1cnc2nc(C)nn2c1N	inactive: 100%
N/C(=N\OC(=O)CC1CCCCC1)c1ccccn1	inconclusive: 103%
Cc1ccc(-c2csc3nc(C)n(N)c(=O)c23)o1	inconclusive: 103%
CCCc1nc2cc(Cl)c([N+](=O)[O-])cc2o1	inconclusive: 101%
CC(=O)NC(c1ccco1)c1ccc2cccnc2c1O (stereo unspecified)	inconclusive: 89%
CN(C)S(=O)(=O)c1ccc(C(=O)OCC(=O)Nc2ccccc2OC(F)F)cc1	inconclusive: 100%
CCC(CC)C(=O)Nc1cccc(C(=O)Nc2ccc(OC)cc2[N+](=O)[O-])c1	inconclusive: 105%
CC1(C)Cc2c(sc(NC(=O)c3ccc(Br)o3)c2C#N)CO1	inactive: 99%
Clc1ccc(SCCCCN2CCOCC2)cc1	inconclusive: 101%
CCOC(=O)N1C=CC(C)=C[C@@H]2[C@@H](N3C(=O)c4ccccc4C3=O)C(=O)N21	inactive: 98%
O=C(COc1ccc(Br)cc1)c1ccc2c(c1)CCCC2	inconclusive: 99%
CNc1c([N+](=O)[O-])cnn1-c1ccc(Cl)cc1	inconclusive: 98%
COC(=O)Oc1ccc(/C=N/NC(=O)CSCc2ccc(Cl)cc2)cc1OC	inactive: 99%
O=[N+]([O-])c1ccccc1OCc1nc(-c2cccs2)no1	inconclusive: 95%
COc1ccc(CC(=O)NNC(=O)c2ccc(NC(C)=O)cc2)cc1	inactive: 95%
CCC(C)NC(=O)COC(=O)c1oc2ccccc2c1CSc1ccc(Cl)cc1 (stereo unspecified)	inactive: 104%
